Out of some 31,000 sequences screened, about 1,400 (4.5%) were called active.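 The calls were made as follows: active = median seed-adjusted z-score above 1 or below -1; inactive = the rest.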 The list shows a part of the results.
Assay: Novel Modifiers of Survival Motor Neuron (SMN) Protein: Gene Identification via Genome-wide siRNA Screen;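 also: luminescence tracks full-length SMN protein made from the SMN2 reporter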
Settings: HEK293T SMN2-luciferase reporter, siRNA knockdown, 72 h; actives lie on both sides
Procedure, shortened: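 Genome-wide siRNA screen (10418 genes, 3 siRNAs each, 1 pmol per well) by reverse transfection in HEK293T cells stably carrying an SMN2-luciferase reporter; luminescence after 72 hours, normalized to negative-control siRNA, log10-transformed, MAD-scored.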

Q: For AGGGCACAUUCACCAGUGATT against GCG, which median seed-adjusted z-score is on record?
A: active: -1.18

Q: With CAGUUAAACCAGCUACUCATT against DBI as the sequence, how does the median seed-adjusted z-score read?
A: inactive: 0.0661

Q: For GGGCUGUAUCUCCAUCUAATT against MAP7, which median seed-adjusted z-score is on record?
A: inactive: -0.22

Q: Which median seed-adjusted z-score does the source give for GGACUACUAUAGCAGAUCATT against SFRS10 here?
A: inactive: -0.071

Q: With GAUCCAGGCUUUCAACGUATT against ATP6AP1 as the sequence, how does the median seed-adjusted z-score read?
A: inactive: 0.358

Q: For UGAACGGAGUUAUUCAUGATT against GLT6D1, which median seed-adjusted z-score is on record?
A: inactive: 0.145

Q: With GGAAAGUCUGAGACCAUAATT against GPR111 as the sequence, how does the median seed-adjusted z-score read?
A: inactive: 0

Q: Which median seed-adjusted z-score does the source give for UCCUGUUCGUGACAAGUGATT against JMJD3 here?
A: inactive: 0.871

Q: For GGAUUCAAAUAGCAGUCAATT against TNFRSF19, which median seed-adjusted z-score is on record?
A: inactive: -0.672

Q: With CAACGAGACUUAUCGAGAUTT against RBM6 as the sequence, how does the median seed-adjusted z-score read?
A: inactive: 0.193

Q: With GAAAAGAGGUACAAAUCUATT against FDPS as the sequence, how does the median seed-adjusted z-score read?
A: inactive: 0.0115

Q: With AAGUCUUCCCGGACAAAAUTT against CSTA as the sequence, how does the median seed-adjusted z-score read?
A: inactive: -0.351

Q: Which median seed-adjusted z-score does the source give for GUGUUUGAUAUACAGAGGATT against RABL2A here?
A: inactive: 0.794

Q: Which median seed-adjusted z-score does the source give for ACAUCGACAUUGGAGCAUATT against DHCR24 here?
A: inactive: 0.493

Q: Which median seed-adjusted z-score does the source give for GGAUGUUCAUAUUCGGGUUTT against TUSC3 here?
A: inactive: 0.138

Q: Which median seed-adjusted z-score does the source give for CAACGACCUGAGUAGGUUUTT against ATP10A here?
A: inactive: -0.435

Q: For CCAUGUUCAGUUCCAAGGATT against CORO1A, which median seed-adjusted z-score is on record?
A: inactive: 0.569

Q: For GGCAGAGACUCCAAAGUAATT against SNX10, which median seed-adjusted z-score is on record?
A: inactive: 0.391

Q: For GGGUGUUAGGUAUCCAGGATT against USP26, which median seed-adjusted z-score is on record?
A: inactive: -0.0505

Q: Which median seed-adjusted z-score does the source give for AGCUUGGUAUACAACCUAATT against PSMAL here?
A: inactive: 0.525

Q: Which median seed-adjusted z-score does the source give for GUUUACCUCUGAGAUCUUUTT against TRMT2A here?
A: inactive: -0.588

Q: For CGAAGGCACUAUCAAAGCATT against UPF1, which median seed-adjusted z-score is on record?
A: inactive: 0.253

Q: With GCAAACCGGUUAAUCAAGATT against GGA2 as the sequence, how does the median seed-adjusted z-score read?
A: inactive: -0.142

Q: Which median seed-adjusted z-score does the source give for AGAUAUCCCAGAUACAUCATT against KRT2 here?
A: inactive: -0.451

Q: For CAUCUAAUGUCAGUCCAUUTT against PRLR, which median seed-adjusted z-score is on record?
A: inactive: 0.394

Q: With CAGGCUUUGUUAGACGUAATT against ZNF157 as the sequence, how does the median seed-adjusted z-score read?
A: inactive: 0.137

Q: Which median seed-adjusted z-score does the source give for UCCUCAACGUGUGCGAUGATT against KCNG1 here?
A: inactive: -0.00995

Q: With GCUUUGAAAGUGUCAGUCATT against SHC1 as the sequence, how does the median seed-adjusted z-score read?
A: inactive: 0.0401

Q: Which median seed-adjusted z-score does the source give for GAAGGUUUAUUAUCGAGAATT against NID1 here?
A: inactive: 0.761

Q: With GGCUGAUGCACAUACAGAATT against CATSPER3 as the sequence, how does the median seed-adjusted z-score read?
A: inactive: 0.685

Q: For UCCUUGAUGUCACAAAGAATT against BDH2, which median seed-adjusted z-score is on record?
A: inactive: -0.242

Q: For CCAUUGUCUUCCACCGAAATT against RAN, which median seed-adjusted z-score is on record?
A: active: -3.09

Q: Which median seed-adjusted z-score does the source give for GCAAGUGACUGCUAUCAAUTT against GRIA2 here?
A: active: -1.02

Q: For GCAAGCAGGUUAUCAACGATT against FLII, which median seed-adjusted z-score is on record?
A: inactive: -0.353

Q: For CCAGGAACUAUGACACGUATT against RHBDD1, which median seed-adjusted z-score is on record?
A: inactive: 0.00277

Q: Which median seed-adjusted z-score does the source give for CCAUCGACAUUGAAACCUUTT against PITPNM2 here?
A: inactive: 0.275

Q: Which median seed-adjusted z-score does the source give for CCUCCAAUAUGAGCGGUUUTT against METTL7B here?
A: inactive: 0.223

Q: Which median seed-adjusted z-score does the source give for CCAGGUCCCUAAUCAUGGATT against NOXA1 here?
A: inactive: -0.441

Q: For ACACUACACGAAUCCAACATT against ZNF280D, which median seed-adjusted z-score is on record?
A: inactive: 0.374

Q: Which median seed-adjusted z-score does the source give for CCUCUUCCAUGUUUCGAAATT against YY1AP1 here?
A: inactive: 0.0453

Q: Which median seed-adjusted z-score does the source give for GUUUCGAAAUGAACGUGCATT against ACACA here?
A: inactive: 0.00665

Q: Which median seed-adjusted z-score does the source give for GGUCAUAUCAGGAUACCAATT against PCSK5 here?
A: inactive: -0.158

Q: With CCUUUGUGGUGAGCGAGUATT against SFRS4 as the sequence, how does the median seed-adjusted z-score read?
A: inactive: 0.239

Q: With AGGUCUGCGUGAAUCCCUATT against SMAD3 as the sequence, how does the median seed-adjusted z-score read?
A: inactive: -0.715

Q: Which median seed-adjusted z-score does the source give for GAUAUGCACCCAAUCGAAATT against B3GALT2 here?
A: inactive: 0.031

Q: Which median seed-adjusted z-score does the source give for GCAAUGAUCGAAAUCACUATT against GZMA here?
A: inactive: -0.234

Q: With GCUUUUCGGGAAGAAGGUUTT against OPN1MW as the sequence, how does the median seed-adjusted z-score read?
A: inactive: -0.369

Q: Which median seed-adjusted z-score does the source give for CUAGUUUGUUGCAAAAUAATT against CDKN2C here?
A: inactive: -0.0789

Q: Which median seed-adjusted z-score does the source give for ACCUCUUCACUGAAAGUUATT against VENTX here?
A: inactive: 0.669

Q: For CCCAGGAUGUUUGCACAUATT against TSHB, which median seed-adjusted z-score is on record?
A: inactive: -0.247

Q: With GGAUCGGAUAAAUAACAGUTT against HEY2 as the sequence, how does the median seed-adjusted z-score read?
A: inactive: -0.0831

Q: Which median seed-adjusted z-score does the source give for GAGACCCACUUUUUCCGGATT against NKX6-1 here?
A: inactive: -0.0317

Q: Which median seed-adjusted z-score does the source give for GCUAAUCCAUUUGAUGACATT against PYGO1 here?
A: active: -1.23
